# Results: paper PMC11345397
# Amino acid sequences for entries named in this document (tags omitted). A change or cut given only in a name is not applied to a line headed by its entry.
# UniProt Q86UW9: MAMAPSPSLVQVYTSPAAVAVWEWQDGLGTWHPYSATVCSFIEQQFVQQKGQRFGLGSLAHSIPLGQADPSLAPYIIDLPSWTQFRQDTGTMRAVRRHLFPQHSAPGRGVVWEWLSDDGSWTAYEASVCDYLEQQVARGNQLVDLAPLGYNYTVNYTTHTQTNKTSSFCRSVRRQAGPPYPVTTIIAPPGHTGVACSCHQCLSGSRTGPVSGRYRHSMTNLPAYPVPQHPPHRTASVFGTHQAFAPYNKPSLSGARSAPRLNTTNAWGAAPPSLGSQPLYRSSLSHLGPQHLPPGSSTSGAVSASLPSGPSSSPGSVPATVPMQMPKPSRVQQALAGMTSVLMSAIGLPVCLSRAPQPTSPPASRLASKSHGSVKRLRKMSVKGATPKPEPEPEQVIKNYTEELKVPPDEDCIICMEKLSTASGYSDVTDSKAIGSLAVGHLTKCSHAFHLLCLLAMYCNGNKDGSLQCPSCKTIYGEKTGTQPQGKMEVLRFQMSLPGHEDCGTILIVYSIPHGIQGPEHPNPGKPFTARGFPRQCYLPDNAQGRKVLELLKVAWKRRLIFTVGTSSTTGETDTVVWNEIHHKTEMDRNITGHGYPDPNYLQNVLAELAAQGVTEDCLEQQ
# UniProt P09874: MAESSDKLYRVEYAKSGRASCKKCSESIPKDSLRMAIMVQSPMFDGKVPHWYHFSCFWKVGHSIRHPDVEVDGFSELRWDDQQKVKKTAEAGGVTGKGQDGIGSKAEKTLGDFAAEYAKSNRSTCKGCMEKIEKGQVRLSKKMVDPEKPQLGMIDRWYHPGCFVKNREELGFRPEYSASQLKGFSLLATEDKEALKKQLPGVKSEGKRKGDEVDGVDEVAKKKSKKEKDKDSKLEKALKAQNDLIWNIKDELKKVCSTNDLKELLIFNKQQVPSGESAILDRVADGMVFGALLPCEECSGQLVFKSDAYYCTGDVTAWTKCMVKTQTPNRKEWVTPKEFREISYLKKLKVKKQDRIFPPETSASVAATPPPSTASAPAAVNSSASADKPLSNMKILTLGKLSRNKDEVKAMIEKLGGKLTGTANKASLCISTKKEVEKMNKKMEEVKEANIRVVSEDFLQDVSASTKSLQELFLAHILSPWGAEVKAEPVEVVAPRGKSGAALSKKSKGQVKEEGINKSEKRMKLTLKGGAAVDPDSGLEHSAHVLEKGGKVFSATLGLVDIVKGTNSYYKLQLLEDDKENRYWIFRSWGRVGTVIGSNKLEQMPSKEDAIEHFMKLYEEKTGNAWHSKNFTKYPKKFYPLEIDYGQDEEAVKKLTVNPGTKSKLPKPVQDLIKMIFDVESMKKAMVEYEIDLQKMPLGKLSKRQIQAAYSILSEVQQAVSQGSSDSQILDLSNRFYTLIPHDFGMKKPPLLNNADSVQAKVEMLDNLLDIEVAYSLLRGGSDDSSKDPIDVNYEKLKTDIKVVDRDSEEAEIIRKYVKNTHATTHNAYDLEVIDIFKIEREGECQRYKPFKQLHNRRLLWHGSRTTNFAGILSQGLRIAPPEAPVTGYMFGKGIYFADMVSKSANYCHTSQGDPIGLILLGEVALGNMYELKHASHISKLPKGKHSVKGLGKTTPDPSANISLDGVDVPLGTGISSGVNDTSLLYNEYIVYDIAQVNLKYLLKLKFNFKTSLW
# These are yes or no findings as the source states them, for the method shown. In cells and extracts the contact can be indirect.
# Target: SFB-tagged DTX2B RING∗ (human) (UniProt Q86UW9)
# Assay: pull-down; streptavidin pull-down (MagReSyn Streptavidin beads, 1 h, 4 °C) of SFB-tagged bait from lysates of transfected HEK293T cells treated with DMSO and then 2 mM H2O2 for 10 min; lysis in 50 mM Tris-HCl pH 7.5, 150 mM NaCl, 1% NP-40 with PARG inhibitor and olaparib; immunoblotting
substance,measurement,value
PARP1 (from UniProt P09874 1-1014),binding,no binding
